# Assay results reported in publication PMC4716144.
# Chains of the proteins cited; added tags and fusions are not shown. Residues count along the entry.
# UniProt P59048: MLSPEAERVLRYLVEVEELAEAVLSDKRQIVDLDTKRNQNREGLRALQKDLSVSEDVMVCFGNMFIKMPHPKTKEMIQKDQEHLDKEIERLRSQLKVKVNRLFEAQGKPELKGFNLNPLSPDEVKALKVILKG
# UniProt Q9QYR6: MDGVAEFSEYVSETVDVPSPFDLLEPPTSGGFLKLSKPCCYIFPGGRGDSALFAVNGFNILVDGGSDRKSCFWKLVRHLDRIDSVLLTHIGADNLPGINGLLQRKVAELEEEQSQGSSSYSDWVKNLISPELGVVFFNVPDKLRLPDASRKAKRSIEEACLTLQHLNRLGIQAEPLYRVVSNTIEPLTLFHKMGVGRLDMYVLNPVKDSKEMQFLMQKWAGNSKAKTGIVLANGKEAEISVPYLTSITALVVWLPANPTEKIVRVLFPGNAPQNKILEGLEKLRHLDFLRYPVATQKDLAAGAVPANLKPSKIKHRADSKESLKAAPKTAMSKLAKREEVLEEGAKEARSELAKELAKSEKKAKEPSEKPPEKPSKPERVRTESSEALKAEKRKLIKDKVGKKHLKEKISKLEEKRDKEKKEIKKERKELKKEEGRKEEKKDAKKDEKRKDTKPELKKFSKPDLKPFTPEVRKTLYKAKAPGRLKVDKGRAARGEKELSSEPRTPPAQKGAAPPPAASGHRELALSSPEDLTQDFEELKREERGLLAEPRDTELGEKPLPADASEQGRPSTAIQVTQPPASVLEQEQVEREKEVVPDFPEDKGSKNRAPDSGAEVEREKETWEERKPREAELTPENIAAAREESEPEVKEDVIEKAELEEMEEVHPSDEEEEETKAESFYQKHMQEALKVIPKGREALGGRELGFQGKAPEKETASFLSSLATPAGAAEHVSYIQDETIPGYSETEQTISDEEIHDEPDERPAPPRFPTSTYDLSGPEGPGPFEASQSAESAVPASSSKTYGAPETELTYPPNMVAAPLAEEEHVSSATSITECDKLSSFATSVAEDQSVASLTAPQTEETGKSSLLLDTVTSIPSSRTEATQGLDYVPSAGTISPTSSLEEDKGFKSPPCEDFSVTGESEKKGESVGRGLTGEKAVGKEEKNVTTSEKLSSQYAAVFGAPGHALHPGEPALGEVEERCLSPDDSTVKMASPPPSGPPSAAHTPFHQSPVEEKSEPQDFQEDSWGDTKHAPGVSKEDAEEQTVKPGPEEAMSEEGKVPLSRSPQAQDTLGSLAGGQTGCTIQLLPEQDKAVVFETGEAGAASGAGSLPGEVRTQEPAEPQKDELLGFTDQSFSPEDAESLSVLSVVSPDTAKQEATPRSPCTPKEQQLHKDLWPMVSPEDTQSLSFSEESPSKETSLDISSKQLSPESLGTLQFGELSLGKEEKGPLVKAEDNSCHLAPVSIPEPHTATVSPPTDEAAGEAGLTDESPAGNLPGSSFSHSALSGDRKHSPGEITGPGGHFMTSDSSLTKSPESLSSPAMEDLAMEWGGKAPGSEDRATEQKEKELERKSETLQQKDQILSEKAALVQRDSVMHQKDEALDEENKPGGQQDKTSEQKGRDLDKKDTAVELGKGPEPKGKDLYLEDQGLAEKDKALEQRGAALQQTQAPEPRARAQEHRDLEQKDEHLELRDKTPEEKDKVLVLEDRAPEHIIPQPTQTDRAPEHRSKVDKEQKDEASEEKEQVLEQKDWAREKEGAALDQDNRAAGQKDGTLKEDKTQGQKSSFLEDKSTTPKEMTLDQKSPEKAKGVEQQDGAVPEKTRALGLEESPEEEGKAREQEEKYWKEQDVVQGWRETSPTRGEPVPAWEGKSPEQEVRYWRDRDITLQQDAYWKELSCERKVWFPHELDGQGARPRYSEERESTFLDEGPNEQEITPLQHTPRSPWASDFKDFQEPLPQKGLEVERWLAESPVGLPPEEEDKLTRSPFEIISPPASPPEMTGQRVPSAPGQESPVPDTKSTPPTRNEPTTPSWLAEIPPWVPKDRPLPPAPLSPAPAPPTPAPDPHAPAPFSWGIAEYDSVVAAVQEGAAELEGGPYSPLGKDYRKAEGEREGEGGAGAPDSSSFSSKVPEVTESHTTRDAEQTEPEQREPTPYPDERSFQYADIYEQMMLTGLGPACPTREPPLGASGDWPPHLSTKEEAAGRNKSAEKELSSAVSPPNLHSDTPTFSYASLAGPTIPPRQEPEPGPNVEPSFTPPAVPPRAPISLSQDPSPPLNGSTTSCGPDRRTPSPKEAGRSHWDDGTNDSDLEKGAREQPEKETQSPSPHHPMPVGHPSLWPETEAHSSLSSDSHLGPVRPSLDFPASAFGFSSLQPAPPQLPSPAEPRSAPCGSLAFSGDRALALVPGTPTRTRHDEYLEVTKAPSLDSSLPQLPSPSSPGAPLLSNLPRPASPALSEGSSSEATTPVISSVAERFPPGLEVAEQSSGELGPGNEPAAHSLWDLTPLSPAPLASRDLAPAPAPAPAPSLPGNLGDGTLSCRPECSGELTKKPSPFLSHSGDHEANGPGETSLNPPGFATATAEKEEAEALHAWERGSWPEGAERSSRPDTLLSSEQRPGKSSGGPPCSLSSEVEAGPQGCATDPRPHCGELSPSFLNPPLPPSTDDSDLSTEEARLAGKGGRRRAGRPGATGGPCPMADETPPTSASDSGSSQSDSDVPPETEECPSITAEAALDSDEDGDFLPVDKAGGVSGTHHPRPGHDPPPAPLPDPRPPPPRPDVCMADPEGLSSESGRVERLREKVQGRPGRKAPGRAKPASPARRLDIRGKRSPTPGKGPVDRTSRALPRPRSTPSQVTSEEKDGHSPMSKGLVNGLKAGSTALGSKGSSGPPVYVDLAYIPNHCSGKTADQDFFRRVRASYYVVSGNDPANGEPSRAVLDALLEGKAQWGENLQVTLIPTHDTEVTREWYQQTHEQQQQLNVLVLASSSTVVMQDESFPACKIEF
# UniProt Q8CG46: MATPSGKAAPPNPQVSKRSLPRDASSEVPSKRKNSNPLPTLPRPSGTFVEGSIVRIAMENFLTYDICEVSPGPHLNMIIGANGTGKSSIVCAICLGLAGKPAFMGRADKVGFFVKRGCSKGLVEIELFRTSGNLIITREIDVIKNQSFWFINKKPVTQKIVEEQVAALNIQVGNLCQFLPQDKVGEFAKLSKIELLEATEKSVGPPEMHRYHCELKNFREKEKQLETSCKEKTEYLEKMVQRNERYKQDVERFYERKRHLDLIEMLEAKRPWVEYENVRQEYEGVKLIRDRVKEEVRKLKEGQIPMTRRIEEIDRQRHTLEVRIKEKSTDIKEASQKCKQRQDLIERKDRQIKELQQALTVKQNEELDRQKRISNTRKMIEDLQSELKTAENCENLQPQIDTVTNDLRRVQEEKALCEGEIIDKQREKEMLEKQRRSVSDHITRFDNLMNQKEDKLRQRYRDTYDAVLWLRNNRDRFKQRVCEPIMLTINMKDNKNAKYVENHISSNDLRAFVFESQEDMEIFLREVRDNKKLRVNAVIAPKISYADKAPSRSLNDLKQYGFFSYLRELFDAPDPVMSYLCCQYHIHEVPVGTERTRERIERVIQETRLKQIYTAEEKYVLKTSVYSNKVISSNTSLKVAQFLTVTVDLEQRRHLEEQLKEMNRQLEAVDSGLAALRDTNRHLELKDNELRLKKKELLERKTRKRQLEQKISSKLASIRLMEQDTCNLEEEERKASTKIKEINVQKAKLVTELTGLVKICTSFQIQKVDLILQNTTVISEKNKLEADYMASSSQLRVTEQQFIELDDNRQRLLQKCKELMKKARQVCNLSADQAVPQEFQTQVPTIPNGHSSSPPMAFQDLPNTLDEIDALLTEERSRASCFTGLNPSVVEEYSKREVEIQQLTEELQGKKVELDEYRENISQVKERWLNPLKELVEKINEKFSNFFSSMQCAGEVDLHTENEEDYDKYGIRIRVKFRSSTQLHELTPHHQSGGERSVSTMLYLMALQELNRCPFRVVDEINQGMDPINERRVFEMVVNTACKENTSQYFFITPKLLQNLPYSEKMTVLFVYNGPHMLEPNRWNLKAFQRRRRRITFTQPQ
# UniProt P15208, residues 28-1372: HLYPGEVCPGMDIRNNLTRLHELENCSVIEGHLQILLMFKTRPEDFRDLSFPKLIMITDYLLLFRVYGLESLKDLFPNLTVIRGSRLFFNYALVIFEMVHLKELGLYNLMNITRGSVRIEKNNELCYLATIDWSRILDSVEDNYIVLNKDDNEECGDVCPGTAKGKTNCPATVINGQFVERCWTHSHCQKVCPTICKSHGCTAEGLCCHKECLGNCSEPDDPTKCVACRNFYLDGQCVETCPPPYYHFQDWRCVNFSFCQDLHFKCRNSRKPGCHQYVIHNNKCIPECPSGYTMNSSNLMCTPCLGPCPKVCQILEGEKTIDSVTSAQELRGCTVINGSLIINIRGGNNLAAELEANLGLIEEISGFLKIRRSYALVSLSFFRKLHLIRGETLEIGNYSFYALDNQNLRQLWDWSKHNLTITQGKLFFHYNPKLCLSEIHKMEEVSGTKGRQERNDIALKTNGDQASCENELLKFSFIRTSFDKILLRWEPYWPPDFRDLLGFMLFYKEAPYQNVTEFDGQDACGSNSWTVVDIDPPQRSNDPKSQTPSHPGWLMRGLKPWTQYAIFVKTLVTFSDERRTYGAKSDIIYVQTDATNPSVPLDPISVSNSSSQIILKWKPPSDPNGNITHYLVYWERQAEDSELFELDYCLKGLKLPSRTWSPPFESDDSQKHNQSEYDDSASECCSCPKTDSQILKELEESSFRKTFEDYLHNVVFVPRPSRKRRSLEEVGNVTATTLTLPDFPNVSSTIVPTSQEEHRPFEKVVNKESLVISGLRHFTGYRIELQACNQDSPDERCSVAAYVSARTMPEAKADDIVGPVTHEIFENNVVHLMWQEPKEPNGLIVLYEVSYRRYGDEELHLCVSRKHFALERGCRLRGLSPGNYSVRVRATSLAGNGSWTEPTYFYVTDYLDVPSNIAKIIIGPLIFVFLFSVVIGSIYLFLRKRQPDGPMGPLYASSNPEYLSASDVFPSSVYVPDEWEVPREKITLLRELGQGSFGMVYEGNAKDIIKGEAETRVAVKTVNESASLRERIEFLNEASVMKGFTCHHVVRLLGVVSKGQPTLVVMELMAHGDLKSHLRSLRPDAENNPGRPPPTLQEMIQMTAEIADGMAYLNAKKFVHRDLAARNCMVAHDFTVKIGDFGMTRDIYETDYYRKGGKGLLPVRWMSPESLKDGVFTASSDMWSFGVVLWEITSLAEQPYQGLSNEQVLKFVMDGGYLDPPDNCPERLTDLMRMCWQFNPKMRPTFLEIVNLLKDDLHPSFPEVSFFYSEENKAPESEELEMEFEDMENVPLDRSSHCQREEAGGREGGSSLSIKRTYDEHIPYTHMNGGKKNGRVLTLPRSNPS
# UniProt Q8VHK1: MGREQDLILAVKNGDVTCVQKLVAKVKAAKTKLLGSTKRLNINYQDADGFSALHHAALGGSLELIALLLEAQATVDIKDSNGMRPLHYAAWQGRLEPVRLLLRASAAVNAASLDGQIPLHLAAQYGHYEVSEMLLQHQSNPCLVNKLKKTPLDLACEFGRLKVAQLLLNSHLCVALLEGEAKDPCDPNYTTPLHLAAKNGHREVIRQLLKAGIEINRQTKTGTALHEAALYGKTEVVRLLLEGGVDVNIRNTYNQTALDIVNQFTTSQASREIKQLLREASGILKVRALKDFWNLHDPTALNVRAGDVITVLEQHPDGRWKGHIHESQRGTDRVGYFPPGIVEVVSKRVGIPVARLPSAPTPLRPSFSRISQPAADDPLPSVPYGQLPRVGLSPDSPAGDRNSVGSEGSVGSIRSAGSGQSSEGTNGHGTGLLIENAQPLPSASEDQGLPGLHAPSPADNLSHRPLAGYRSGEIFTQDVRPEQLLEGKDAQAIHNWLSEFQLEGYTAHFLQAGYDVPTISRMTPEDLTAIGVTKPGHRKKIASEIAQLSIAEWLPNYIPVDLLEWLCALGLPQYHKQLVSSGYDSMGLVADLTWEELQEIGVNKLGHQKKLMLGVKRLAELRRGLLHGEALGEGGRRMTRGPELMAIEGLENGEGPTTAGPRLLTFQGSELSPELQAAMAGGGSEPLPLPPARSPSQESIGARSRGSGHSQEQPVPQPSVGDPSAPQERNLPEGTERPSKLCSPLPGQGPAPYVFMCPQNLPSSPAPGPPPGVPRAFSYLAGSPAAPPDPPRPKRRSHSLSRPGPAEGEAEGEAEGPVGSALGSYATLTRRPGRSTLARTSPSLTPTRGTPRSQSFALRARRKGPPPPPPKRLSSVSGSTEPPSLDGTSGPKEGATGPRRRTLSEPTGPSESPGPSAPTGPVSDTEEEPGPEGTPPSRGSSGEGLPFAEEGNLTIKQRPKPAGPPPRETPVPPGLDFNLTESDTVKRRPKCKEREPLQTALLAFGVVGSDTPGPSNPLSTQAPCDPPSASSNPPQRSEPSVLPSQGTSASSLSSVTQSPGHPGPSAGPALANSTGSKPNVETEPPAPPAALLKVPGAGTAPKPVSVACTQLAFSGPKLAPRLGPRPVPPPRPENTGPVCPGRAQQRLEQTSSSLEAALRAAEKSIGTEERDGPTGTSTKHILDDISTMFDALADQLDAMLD
# No constants are given. Whether binding was seen depends on the method and setting. In cells and extracts the contact can be indirect. Some results given as binding are weak or reduced against the parent protein; the word gives no strength.
# B1: insulin receptor substrate 2 (protein, UniProt P81122 1-1321)
# chain: MASAPLPGPPASAGGDGPNLNNNNNNNNHSVRKCGYLRKQKHGHKRFFVLRGPGTGGDEASAAGGSPPQPPRLEYYESEKKWRSKAGAPKRVIALDCCLNINKRADAKHKYLIALYTKDEYFAVAAENEQEQEGWYRALTDLVSEGRSGEGGSGTTGGSCSASLPGVLGGSAGAAGCDDNYGLVTPATAVYREVWQVNLKPKGLGQSKNLTGVYRLCLSARTIGFVKLNCEQPSVTLQLMNIRRCGHSDSFFFIEVGRSAVTGPGELWMQADDSVVAQNIHETILEAMKALKELFEFRPRSKSQSSGSSATHPISVPGARRHHHLVNLPPSQTGLVRRSRTDSLAATPPAAKCTSCRVRTASEGDGGAAGGAGTAGGRPMSVAGSPLSPGPVRAPLSRSHTLSAGCGGRPSKVTLAPAGGALQHSRSMSMPVAHSPPAATSPGSLSSSSGHGSGSYPLPPGSHPHLPHPLHHPQGQRPSSGSASASGSPSDPGFMSLDEYGSSPGDLRAFSSHRSNTPESIAETPPARDGSGGELYGYMSMDRPLSHCGRPYRRVSGDGAQDLDRGLRKRTYSLTTPARQRQVPQPSSASLDEYTLMRATFSGSSGRLCPSFPASSPKVAYNPYPEDYGDIEIGSHKSSSSNLGADDGYMPMTPGAALRSGGPNSCKSDDYMPMSPTSVSAPKQILQPRLAAALPPSGAAVPAPPSGVGRTFPVNGGGYKASSPAESSPEDSGYMRMWCGSKLSMENPDPKLLPNGDYLNMSPSEAGTAGTPPDFSAALRGGSEGLKGIPGHCYSSLPRSYKAPCSCSGDNDQYVLMSSPVGRILEEERLEPQATPGAGTFGAAGGSHTQPHHSAVPSSMRPSAIGGRPEGFLGQRCRAVRPTRLSLEGLQTLPSMQEYPLPTEPKSPGEYINIDFGEAGTRLSPPAPPLLASAASSSSLLSASSPASSLGSGTPGTSSDSRQRSPLSDYMNLDFSSPKSPKPSTRSGDTVGSMDGLLSPEASSPYPPLPPRPSTSPSSLQQPLPPAPGDLYRLPPASAATSQGPTAGSSMSSEPGDNGDYTEMAFGVAATPPQPIVAPPKPEGARVASPTSGLKRLSLMDQVSGVEAFLQVSQPPDPHRGAKVIRADPQGGRRRHSSETFSSTTTVTPVSPSFAHNSKRHNSASVENVSLRKSSEGSSTLGGGDEPPTSPGQAQPLVAVPPVPQARPWNPGQPGALIGCPGGSSSPMRRETSVGFQNGLNYIAIDVRGEQGSLAQSQPQPGDKNSWSRTRSLGGLLGTVGGSGASGVCGGPGTGALPSASTYASIDFLSHHLKEATVVKE
# B2: F-box protein 24 (protein, UniProt Q9D417 1-589)
# chain: MVKRSCPSCGLEAGSEKKERGNPISVQLFPPELVEHIVSFLPVKDLVALGQTCHYFHEVCDAEGVWRRICRRLSPRIRDQSSGARPWKRAAILNYTKGLYFQAFGGRRRCLSKSVAPMLAHGYRRFLPTKDHVFILDYVGTLFFLKNALVSSTLGQIQWKRACRYVVLCRGAKDFASDPRCDTVYRKYLYVLATREQPAVVGTTGSRACDCVEVYLQSSGQRVFKMTFHHSMSFKQIVLVGQETQRALLLLTEEGKIYSLVVNETQLDQPRSYTVQLALRKVSRCLPHLRVTCMASNQSSTLYITGGTLIPRKQVPKAAELRAPDPPDQGGVYFEVHTPGVYRDLFGTLQAFDPLDHQMPLALSLPAKVLFCALGYNHLGLVDEFGRIFMQGNNRYGQLGTGDKMDRGEPTQVHYLQRPIALWCGLNHSLVLSQTSDFSKELLGCGCGAGGRLPGWPKGSASFVKLHIKVPLCACSLCSTRECLYMLSSHDIEQCPVYRDLPASRVGGSPEPSQGAGAPQDPGGTAQACEEYLSQIHSCPTLQDRMEKMKEIVGWMPLMAAQKDFFWEALDMLQRAAGGAGPDTSTPES
# Target: T1, G protein-coupled receptor kinase interacting protein 2 (mouse (endogenous in pancreas)) (UniProt Q9JLQ2)
# T1 sequence: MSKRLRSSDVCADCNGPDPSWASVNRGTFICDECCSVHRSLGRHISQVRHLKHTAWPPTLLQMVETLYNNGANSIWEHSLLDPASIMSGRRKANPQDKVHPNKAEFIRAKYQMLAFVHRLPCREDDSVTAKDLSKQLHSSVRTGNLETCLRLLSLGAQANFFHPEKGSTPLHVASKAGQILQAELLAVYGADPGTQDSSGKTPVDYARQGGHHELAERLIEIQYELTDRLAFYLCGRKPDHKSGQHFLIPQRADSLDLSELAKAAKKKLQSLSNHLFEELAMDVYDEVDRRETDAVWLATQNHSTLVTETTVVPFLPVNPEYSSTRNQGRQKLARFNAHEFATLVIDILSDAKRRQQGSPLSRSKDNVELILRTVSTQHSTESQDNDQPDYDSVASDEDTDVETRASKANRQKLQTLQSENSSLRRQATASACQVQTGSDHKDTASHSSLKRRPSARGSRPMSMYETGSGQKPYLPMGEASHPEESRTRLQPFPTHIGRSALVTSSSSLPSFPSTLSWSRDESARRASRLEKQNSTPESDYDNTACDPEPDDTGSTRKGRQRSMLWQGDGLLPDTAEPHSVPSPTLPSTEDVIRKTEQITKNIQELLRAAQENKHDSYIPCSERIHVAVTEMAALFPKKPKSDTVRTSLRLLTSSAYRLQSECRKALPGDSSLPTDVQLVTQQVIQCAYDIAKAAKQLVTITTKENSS
# Experiment: co-IP; anti-GIT2 immunoprecipitation from lysates of whole pancreas of WT and db/db mice, normalised for GIT2 content, semi-quantitative Western blot of the co-precipitated partner
row,Molecule,binding
1,p53 and DNA damage regulated 1 (from UniProt P59048 1-133),binds
2,microtubule-associated protein 1 A (from UniProt Q9QYR6 1-2776),binds
3,structural maintenance of chromosomes 5 (from UniProt Q8CG46 1-1101),binds
4,insulin receptor (from UniProt P15208 28-1372),binds
5,CASK-interacting protein 2 (from UniProt Q8VHK1 1-1201),binds
6,B1,binds
7,B2,binds
